Out of some 31,000 sequences screened, about 1,400 (4.5%) were called active.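 The calls were made as follows: active = median seed-adjusted z-score above 1 or below -1; inactive = the rest.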 This is one part of the list.
Experiment: Novel Modifiers of Survival Motor Neuron (SMN) Protein: Gene Identification via Genome-wide siRNA Screen;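 also: luminescence tracks full-length SMN protein made from the SMN2 reporter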
Conditions: HEK293T SMN2-luciferase reporter, siRNA knockdown, 72 h; actives lie on both sides
Outline: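 siRNA screen, 10418 genes ×3 siRNAs; 1 pmol/well, lipid reverse transfection into HEK293T SMN2-luc reporter line. 72 h, 37 °C, 5% CO2; ONE-Glo readout. Data: neg-ctrl normalized, log10, MAD; hit = MAD >1.0 or < -1.0.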

| Sequence | median seed-adjusted z-score |
| --- | --- |
| GCCCGAUGAGAUCAACAUUTT against PPP1R14A | inactive: 0.0124 |
| CCUUCUCUCUGAUUAUUGATT against DLL1 | inactive: 0 |
| CCUCUGGACACGUAACCUATT against NR2F6 | inactive: -0.681 |
| GCACUAUCUCGGAUAAGUATT against SIM1 | inactive: -0.0177 |
| CAACCUUGACAAUGCAAUUTT against NNT | inactive: 0.336 |
| ACUCCUCCGUAUGUUUAUATT against PITX2 | inactive: -0.231 |
| GGAAUUCGGUGUAUCAGAUTT against IMPDH1 | inactive: 0.558 |
| GGUGAUCGUGUCUUCCAUATT against DHRS4 | inactive: 0.263 |
| GGAAAUCAUUCUUCACGUATT against PSMD13 | inactive: 0.58 |
| AGAUAUUUGUGGACUACGATT against SNRNP35 | inactive: 0.172 |
| GUGUUCGACUGUAAAUUCATT against REM1 | inactive: 0.231 |
| GGAUUAUCGACUUCAUAUUTT against NDUFB2 | inactive: 0.063 |
| GAAAUGCACAGAUGCCUAUTT against LAIR2 | inactive: -0.481 |
| GCUUGGUAGCAUACAAAGATT against PMM2 | inactive: 0.448 |
| CAAGAAAGAGGGUAAAGCATT against LIG1 | inactive: 0.722 |
| GGGUUUUACACUGUCCAAATT against ECEL1 | inactive: -0.301 |
| GACUCAACAAGGCAGCAUUTT against BPIL1 | inactive: 0.261 |
| GCGGUUCAGCGAGGAAGAATT against NR2F1 | inactive: 0.259 |
| UGAUGGUUGUGACAAUUGUTT against SUPT4H1 | active: -1.01 |
| GGUUAUAAGCUGAGGCAGATT against BCL2L2 | inactive: 0 |
| CUAUAUCCUUGACACCUUATT against ATP6V1G2 | inactive: -0.664 |
| CCUCAUAUAUCAUGACCGATT against ZNF607 | inactive: 0.857 |
| CCCUCCUCGUGGAACCAUATT against NEURL2 | active: 1.39 |

Single values from above.
In median seed-adjusted z-score, GGAAUUCGGUGUAUCAGAUTT against IMPDH1 is listed with inactive: 0.558
In median seed-adjusted z-score, ACUCCUCCGUAUGUUUAUATT against PITX2 is listed with inactive: -0.231
In median seed-adjusted z-score, GCGGUUCAGCGAGGAAGAATT against NR2F1 is listed with inactive: 0.259

(list continues)

| Sequence | median seed-adjusted z-score |
| --- | --- |
| AUAUCAUGAUGAACAAGCATT against RHO | inactive: -0.267 |
| GGGUGGAGUUAUUCGAAAATT against ECT2 | inactive: 0.04 |
| GGACUUUGAUCGCUAUCAATT against PLCG1 | inactive: -0.336 |
| GCUUGUCACUCUUGCCUAUTT against CNGB3 | inactive: 0.226 |
| GCAGACAACAUAUGUUUUATT against SLC15A4 | inactive: -0.29 |
| CCACUGUACUGAGUGACCATT against HECTD3 | inactive: 0 |
| GCAUAUUGCUAGGAGGGUATT against GLDC | inactive: 0 |
| AGCUCUUUUUGGGACUAUUTT against GK | inactive: -0.474 |
| CGAUAGAAGAGGUAUAGGATT against ZNF415 | inactive: 0.222 |
| CGCUCUACGGUAACGUGUUTT against POU3F1 | inactive: 0.279 |
| GUCAUUACGUCAUCCUCAATT against ZNF721 | inactive: 0.404 |
| CUACCAGUGUUACUUCCAATT against BTN2A3 | inactive: -0.483 |
| CGACUGGAUUAAGCAGUAUTT against ATP6V1C1 | inactive: 0.0821 |
| GAGUUUAACCAGGUGAUAATT against DDX39 | inactive: -0.342 |
| GCAUAUCUUUUGCAACGAATT against SOS1 | inactive: 0 |
| GGUUAUCAUGGGAUAUUCATT against SRPK1 | inactive: 0.37 |
| GCUCUGCUGUGUUGCACCATT against MRGPRE | inactive: -0.65 |
| GGACAGCAGCGUGAACUAUTT against ALX1 | inactive: -0.556 |
| CUCCAUCGCUAGAUCGAAATT against INPP4A | inactive: 0.379 |
| GAAGGACAUGUACAAGAAATT against ITPKA | inactive: -0.136 |
| CGAUCAAGGAGGCAGAUUATT against PHF14 | inactive: 0.354 |
| UAACGACUGCUUUAACUGUTT against FHL2 | inactive: 0.475 |
| GCUUCUCUGCAGGAAAUUATT against PIGL | inactive: 0.827 |

| Sequence | median seed-adjusted z-score |
| --- | --- |
| GCAGCUUAAUGUCAGUCCATT against TRMT5 | inactive: 0 |
| CAGACUAUGAUGAAACUCATT against BMX | inactive: -0.00712 |
| GUAGAGCUGUUGCAAGCAATT against DCTN2 | inactive: 0.339 |
| GGCCCUUAUUCGUCCUGAUTT against LEPROT | inactive: -0.17 |
| CGCUGCAGAUUCACCAAGATT against ASL | inactive: 0.0344 |
| CCGACAGCUUAGUCAAAGATT against BZW2 | inactive: 0.0649 |
| GGACAAUUCAGGACCUUUUTT against MPP6 | inactive: -0.625 |
| GCUCUAAACUUGGGACUAATT against PFKM | inactive: -0.362 |
| GACCUUAAGAUACCAGUAUTT against DMAP1 | inactive: 0.342 |
| GCUCUUAAAAUUAAGUACATT against T | inactive: -0.018 |
| CGGUAUCACCGUUGAUGAATT against ARID1A | active: -1.14 |
| GAGACAGUGUUGAUCUGCATT against BEST3 | inactive: -0.211 |
| CUCUCUCUCGGAAUCUGAATT against POLR2L | active: -1.19 |
| ACUACUACCAAUAAUCAAATT against NEUROD2 | inactive: -0.103 |
| CUAGCAUCAUAUCAAGAUATT against MTERF | inactive: 0.432 |
| CACUCACAAACAUAACAAUTT against FKBP14 | inactive: -0.455 |
| GGACCGCUACUAUAGCUCATT against IL12B | inactive: 0.409 |
| GGGUAGAAAUUGAUCCUGATT against GK5 | inactive: -0.118 |
| GGACCACAAGGGAAUACAATT against KHDRBS1 | inactive: 0.0916 |
| CCAACUCCAGCGAAAACAUTT against SSBP4 | inactive: 0.254 |
| GCAAGUACAAAGUAGAUUUTT against MRPL39 | inactive: 0.355 |
| GGGAGGAUUUGAUCGGACATT against SPEN | active: -1.69 |
| CAAACAUCCAUAUCUAUGATT against NMT1 | inactive: 0.18 |

Reference: PubChem BioAssay AID1347426 (Functional Genomics Laboratory (NCATS/FGL), 2020)
